PubChem BioAssay AID686937, Drosophila RNAi Screening Center | 2013
Test: 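Knock-downs that reduce output of a secreted reporter enzyme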 (primary screen). Cells: Drosophila S2 cells expressing secreted horseradish peroxidase. Reagent: long dsRNA against Drosophila genes. Time to read-out: about 5.5 days (5 days dsRNA, then 12 h reporter induction). Treatment: reporter expression induced after 5 days of dsRNA, read 12 h later; inducer not stated. Measured: 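After 5 days of dsRNA and 12 h of reporter induction, medium peroxidase read by chemiluminescence and scored as per-plate z-score; higher values mean more reporter released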. Reading the numbers: z-score: higher = more reporter secreted into medium.
In all, the deposit lists about 23,000 reagents; shown is an unselected part of those with a known target gene and a result. 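Reduced-secretion tags in replicate 1 do not always agree with the z-scores; no criterion for assigning the tags was given.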 Names joined by + are all predicted targets of the reagent. Not all columns of the deposit are shown. Not given: the amount of reagent.

Target gene	PubChem SID	z-score, replicate 1	z-score, replicate 2	z-score, replicate 3	z-score, replicate 4
CG13488	SID104183925	-0.02	0.47		
Cpr65Az	SID104189674	-0.22	0.13		
Cpr65Az	SID104201633	-0.02	-0.15		
AANATL5	SID104185786	0.47	0.24		
AspRS	SID104185706	-0.15	-0.13		
P5CS	SID104191623	0.29	0.21		
P5CS	SID104191624	0.18	0.15		
CG1090	SID104191942	0.13	0.17		
CG1090	SID104201308	-0.51	-0.98		
CG12517	SID104181965	0.03	-0.06		
CG12375	SID104181955	0.34	0.35		
PPO3	SID104184117	0.3	0.45		
Act5C	SID104197515	-0.13	-0.63		
gogo	SID104189862	0.27	0.06		
gogo	SID104189863	0.43	0.39		
wa-cup	SID104192303	0.38	-0.16		
pdm3	SID104185868	0.43	0.38		
pdm3	SID104186282	0.42	0.33		
pdm3	SID104201827	0.45	-0.03		
CG3376	SID104184154	0.16	0.44		
CG32305	SID104188406	0.13	0.3		
CG32642	SID104198751	0.33	0.15		
CG31548	SID104202046	0.56	0.52		
CG1116	SID104191958	0.47	0.38		
crp	SID104183307	-0.8	-1.05		
CG43132 (retired record)	SID104199276	0.2	0.52		
CG5079	SID104195505	-2.19	-2.55		
Cals	SID104196988	0.13	0.33		
Cals	SID104201348	0.02	-0.71		
TotB	SID104195634	0.32	0.33		
CG10252	SID104194013	0.04	0.13		
CG3149	SID104197524	0.34	0.27		
CG13078	SID104181974	0.36	0.3		
Hsp23	SID104190980	0.32	0.13		
CG7443	SID104196036	0.51	0.69		
CG2750	SID104199659	0.67	0.34	0.51	0.7
CG9849	SID104184365	0.54	0.36		
CG43658	SID104199247	0.17	0.46		
CG43658	SID104199903	0.16	0.23		
glo	SID104195937	0.29	0.58		
CG8012	SID104190743	0.21	0.16		
Hex-t1	SID104196493	0.07	0.14		
Sytalpha	SID104182661	0	0.31		

7 entries from above, sorted by “z-score, replicate 1”, highest first:
Target gene	PubChem SID	z-score, replicate 1	z-score, replicate 2	z-score, replicate 3	z-score, replicate 4
gogo	SID104189863	0.43	0.39		
wa-cup	SID104192303	0.38	-0.16		
CG12375	SID104181955	0.34	0.35		
PPO3	SID104184117	0.3	0.45		
gogo	SID104189862	0.27	0.06		
CG12517	SID104181965	0.03	-0.06		
Act5C	SID104197515	-0.13	-0.63		

Continued:
Target gene	PubChem SID	z-score, replicate 1	z-score, replicate 2	z-score, replicate 3	z-score, replicate 4
COX7AL	SID104195105	0.36	-0.16		
CG3961	SID104190182	0.23	0.33		
CG3961	SID104190183	0.45	-0.04		
CG34196	SID104185496	0.49	0.47		
l(2)SH0834	SID104182646	-0.24	-0.44		
ttm50	SID104198379	0.39	0.18		
CG43234 (retired record)	SID104181578	0.48	0.29		
CG17475	SID104195030	0.23	0.33		
CG8654	SID104187023	-0.27	-0.2		
CRAT	SID104192315	0.24	0.25		
Neurl4	SID104190430	0.32	0.4		
gcm	SID104183328	0.64	0.43		
Ssl	SID104184449	-0.08	-0.1		
CG3698	SID104191541	0.42	0.23		
Prat	SID104196589	0.2	0.5		
mad2	SID104190066	-0.71	-0.75		
CG31010	SID104193798	0.59	0.32		
Acp95EF + Spase22-23	SID104193894	0.34	0.44		
Or69a	SID104191035	0.05	0.24		
Naa30A	SID104198375	-1.41	-0.98		
trc	SID104191198	0.35	0.64		
Tsf1	SID104200088	0.22	0.02		
CG5674	SID104182666	-1.77	-0.93		
Cyp4d8	SID104190923	0.39	0.31		
CG3803	SID104184212	0.01	0.28		
flip	SID104192118	0.2	0.16		
CG13670	SID104189821	0.49	0.63		
PK1-R	SID104196369	0.42	0.46		
Prp38	SID104186852	-1.35	-0.7		
Tengl3	SID104201804	0.09	-0.49		
Rbcn-3B	SID104198366	0.3	0.39		
twin	SID104195051	0.2	0.31		
twin	SID104195623	0.37	0.43		
twin	SID104201135	1.16	0.36		
Nmdar1	SID104191863	0.55	0.15		
Nmdar1	SID104192148	0.34	0.74		
CG5399	SID104195583	0.66	0.67		
CG7309	SID104182837	0.18	0.17		
ppk9	SID104183926	-0.14	0.3		
ppk9	SID104183927	-0.02	0.43		
